Our source for the AC50, max response and viability change values is PubChem BioAssay (NCATS).

Each structure is given as a SMILES string. Where “and” joins values, the source holds several entries; their conditions need not be identical. Identical values can stand only once. Some of the results follow. Shown are side measurements of this screen, not its main read-out; they come without a call. Most of these compounds were active or inconclusive in the main read-out, so they are no random draw. For some of these results: Words in brackets tell the shape of the fitted curve; partial curves, single points and poor fits give uncertain potencies.

A short description of experiment [1]: qHTS assay for small molecule antagonists of androgen receptor signaling (AID 588516). Particulars: AR-UAS-bla HEK293, beta-lactamase ratio, antagonist mode, 16 h. In short, it runs like this:
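Cells were plated and incubated 5 h, compounds added in titration, then R1881 (10 nM final) as agonist. After 16 h at 37 C, CCF4 substrate was loaded for 2 h at room temperature and fluorescence measured.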
Background: qHTS replaces the single test concentration by a dilution series.

Experiment [2] can be described thus: qHTS assay for small molecule antagonists of glucocorticoid receptor signaling (AID 588533). Particulars: HeLa MMTV-bla, GRE beta-lactamase ratio, antagonist mode, 18 h; measured here: W530 channel AC50.
Experiment [3] in a line: qHTS assay for small molecule antagonists of peroxisome proliferator-activated receptor gamma signaling (AID 588537). Particulars: HEK293 PPARg-UAS-bla, beta-lactamase ratio, antagonist mode; measured here: W460 blue channel. A digest of the protocol:
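Antagonist mode, beta-lactamase reporter in HEK293; charcoal/dextran FBS 1%; 3000 cells/well, 37 C 6-6.5 h; cpd titration + rosiglitazone 50 nM final, 16 h 37 C; CCF4, 2 h RT; 460/530 nm; Hill fit → IC50, efficacy.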

The nature of experiment [4]: qHTS assay for small molecule antagonists of vitamin D receptor signaling (AID 588541). Particulars: HEK293T VDR-UAS-bla, beta-lactamase ratio, antagonist mode; measured here: W460 blue channel (cell viability).
Experiment [5] can be described thus: qHTS assay for small molecule agonists of retinoid X receptor alpha signaling (AID 588544). Particulars: HEK293T RXRa-UAS-bla, beta-lactamase reporter, 18 h; 530 nm emission.
The nature of experiment [6]: qHTS assay for small molecule antagonists of retinoid X receptor alpha signaling (AID 588546).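 Further: cells stimulated with 9-cis-retinoic acid as agonist; on the % scale 0 is the no-effect control and ±100 the full control effect.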 The conditions noted are these: HEK293T RXRa-UAS-bla, beta-lactamase ratio, antagonist mode; measured here: W530 green channel, cytotoxicity proxy. A digest of the protocol: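 Beta-lactamase reporter inhibition, read as CCF4 fluorescence ratio (ex 405, em 460/530 nm) after 2 h at RT. HEK293T UAS-bla cells, 2500/well, were stimulated with 9-cis-RA at 500 or 100 nM final alongside test compound for 18 h at 37 C.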

Experiment [7] can be described thus: qHTS assay for small molecule antagonists of peroxisome proliferator-activated receptor delta signaling (AID 588535).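 Further: cells co-treated with a PPAR-delta agonist as stimulator during compound exposure.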 The conditions noted are these: HEK293T PPARd-UAS-bla, beta-lactamase FRET ratio, 18 h; 460 nm channel. A digest of the protocol: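 HEK293T PPAR-delta-UAS-bla cells, 4000/well, 2% charcoal/dextran FBS; 5 h 37 C; cpd titration; 18 h 37 C; CCF4 2 h RT; FI 460/530 nm; Hill fit → IC50, efficacy.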

Experiment [8] is described as follows: Nrf2 qHTS screen for inhibitors: Validation (AID 493153). The conditions noted are these: A549 ARE-Fluc reporter, 18-24 h; AC50: CellTiter-Fluor fluorescence read, measured here: cytotoxicity CellTiter-Fluor AC50; viability change: measured here: cytotoxicity max response. A digest of the protocol:
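Luminescence from an ARE-firefly luciferase reporter in A549 cells gives Nrf2 inhibition; an earlier CellTiter-Fluor fluorescent read flags cytotoxicity. Cells in 5% FBS OPTI-MEM received compound dilution series for 18-24 h at 37°C.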

[9] abbreviates: measured here: W460 blue channel fit.
Setting [10] is: measured here: W530 green channel, cytotoxicity/artifact.

For `c1ccc2cc3c(cc2c1)-c1cccc2cccc-3c12`, the AC50 (as a rule, the concentration giving half of the maximal activity seen) is 31.6 µM [rising, partial curve] and 5.62 µM [rising, full curve] in experiment [1] (setting [9]); 7.94 µM [rising, full curve] and 8.91 µM [rising, full curve] in experiment [1] (setting [10]); 15.8 µM [rising, partial curve, poor fit] and 14.1 µM [rising, partial curve, poor fit] in experiment [2]; 15.8 µM [rising, partial curve, poor fit] and 1.78 µM [rising, full curve] in experiment [3]; 2.51 µM [rising, full curve] and 4.47 µM [rising, full curve] in experiment [4]. For the same compound, the max response in experiment [5] is 33.6%; in experiment [6], 39.5% and 21.7%.

`O=C(NC(=O)c1c(F)cccc1F)Nc1cc(Cl)c(OC(F)(F)C(F)F)c(Cl)c1`: the AC50 in experiment [1] (setting [9]) is 35.5 µM [falling, partial curve, poor fit]; in experiment [1] (setting [10]) it was 35.5 µM [rising, partial curve, poor fit]. In addition, in experiment [7], the max response was -19.3%.

On to `COC(=O)Nc1nc2ccccc2[nH]1`, for which the AC50 in experiment [1] (setting [9]) is 14.1 µM [falling, partial curve, poor fit]; in experiment [1] (setting [10]), 44.7 µM [rising, single point]; in experiment [2] it was 15.8 µM [falling, partial curve, poor fit]. The max response was -49.9% in experiment [7]; 9.02% and -6.4% in experiment [5]; -4.38% in experiment [6].

As for `[CH3][Hg][Cl]`, the AC50 in experiment [1] (setting [9]) is 31.6 µM [falling, full curve]; in experiment [1] (setting [10]), 14.1 µM [rising, partial curve]; in experiment [3], 25.1 µM [falling, full curve, poor fit]; in experiment [4], 5.01 µM [falling, full curve, poor fit]. In addition, the max response in experiment [7] is -91%; in experiment [5] it was -36.4%.

Regarding `O=c1ccc(=O)[nH][nH]1`, the AC50 in experiment [1] (setting [9]) was 0.251 µM [rising, full curve, poor fit].

On to `Cc1cc(N=Nc2ccccc2C)ccc1N`, for which the AC50 was 44.7 µM [falling, partial curve, poor fit] in experiment [1] (setting [9]); 22.4 µM [rising, single point] in experiment [1] (setting [10]); 44.7 µM [falling, partial curve, poor fit] in experiment [2]; 25.1 µM [falling, partial curve, poor fit] and 39.8 nM [falling, full curve, poor fit] in experiment [3]. In addition, the max response in experiment [7] is -71.5%; in experiment [5], 9.96% and 3.38%; in experiment [6], -12.9%.

Consider `Oc1cc(Cl)c(Cl)c(Cl)c1Cl`, for which the AC50 is 20 µM [rising, partial curve, poor fit] in experiment [1] (setting [10]); 17.8 µM [falling, partial curve, poor fit] in experiment [2]; 12.6 µM [falling, full curve] in experiment [3]. Moreover, the max response was found to be 61.6% in experiment [7], 22.8% in experiment [5] and 5.12% in experiment [6].

Consider `Cc1ccccc1C(=O)Nc1cccc(OC(C)C)c1`, for which, in experiment [1] (setting [10]), the AC50 was 44.7 µM [rising, single point].

`O=C1C2(Cl)C3(Cl)C4(Cl)C(Cl)(Cl)C5(Cl)C3(Cl)C1(Cl)C5(Cl)C24Cl` (centres undefined): the AC50 is 50.1 µM [falling, partial curve, poor fit] and 39.8 µM [falling, partial curve] in experiment [1] (setting [9]); 70.8 µM [falling, single point] in experiment [1] (setting [10]); 39.8 µM [falling, partial curve] in experiment [2]; 50.1 µM [falling, partial curve, poor fit] and 25.1 µM [falling, full curve] in experiment [3]; 39.8 µM [falling, partial curve, poor fit] and 22.4 µM [falling, partial curve, poor fit] in experiment [4]. The max response is -54.4% and -45.3% and -18% in experiment [7]; -49.8% and 37.5% and -8.37% in experiment [5]; -33.6% and -2.56% and -6.66% in experiment [6].

`CC/C(=C(\c1ccc(O)cc1)c1ccc(OCCN(C)C)cc1)c1ccccc1`: the AC50 in experiment [1] (setting [9]) is 50.1 µM [falling, single point]; in experiment [2] it was 50.1 µM [falling, single point]; in experiment [4] it was 39.8 µM [falling, partial curve]. In experiment [7], the max response was -93.6%.

With `Cc1ccc(O)cc1`, the AC50 in experiment [1] (setting [9]) was 50.1 µM [falling, partial curve, poor fit].

As for `CCN(CCCl)Cc1ccccc1Br`, the viability change in experiment [8] was determined as 1.79%.

With `c1cc(OCC2CO2)cc(OCC2CO2)c1` (centres undefined), the AC50 in experiment [1] (setting [10]) is 25.1 µM [rising, full curve, poor fit]; in experiment [2], 12.6 µM [falling, full curve, poor fit]; in experiment [4] it was 44.7 µM [falling, single point]. For the same compound, the max response was -82.3% in experiment [7]; 66.4% and 6.12% in experiment [5]; 49.6% in experiment [6].

As to `COP(=S)(OC)Oc1cc(Cl)c(Cl)cc1Cl`, the AC50 is 44.7 µM [falling, single point] in experiment [1] (setting [9]) and 44.7 µM [rising, single point] in experiment [1] (setting [10]).

For the compound `C[C@@H]1Cc2c(Cl)cc(C(=O)N[C@@H](Cc3ccccc3)C(=O)O)c(O)c2C(=O)O1`, the AC50 in experiment [1] (setting [9]) is 2.24 µM [falling, full curve]; in experiment [1] (setting [10]), 12.6 µM [rising, full curve]; in experiment [3] it was 2.82 µM [falling, full curve, poor fit]. In addition, the max response in experiment [5] was -8.52%; in experiment [6] it was 10.6%.
